Assay results: article PMC12356253
These are yes or no findings as the source states them, for the method shown. Some entries that bind do so weakly or less than the wild type.

Protein sequences, listed by entry. Tags and fused reporters are not part of them. Residues count along the entry.
UniProt Q5VUM1, residues 21-108: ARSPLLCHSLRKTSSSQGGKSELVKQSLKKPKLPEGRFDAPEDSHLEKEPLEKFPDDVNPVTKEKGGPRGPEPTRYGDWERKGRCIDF
UniProt P31040, residues 43-664: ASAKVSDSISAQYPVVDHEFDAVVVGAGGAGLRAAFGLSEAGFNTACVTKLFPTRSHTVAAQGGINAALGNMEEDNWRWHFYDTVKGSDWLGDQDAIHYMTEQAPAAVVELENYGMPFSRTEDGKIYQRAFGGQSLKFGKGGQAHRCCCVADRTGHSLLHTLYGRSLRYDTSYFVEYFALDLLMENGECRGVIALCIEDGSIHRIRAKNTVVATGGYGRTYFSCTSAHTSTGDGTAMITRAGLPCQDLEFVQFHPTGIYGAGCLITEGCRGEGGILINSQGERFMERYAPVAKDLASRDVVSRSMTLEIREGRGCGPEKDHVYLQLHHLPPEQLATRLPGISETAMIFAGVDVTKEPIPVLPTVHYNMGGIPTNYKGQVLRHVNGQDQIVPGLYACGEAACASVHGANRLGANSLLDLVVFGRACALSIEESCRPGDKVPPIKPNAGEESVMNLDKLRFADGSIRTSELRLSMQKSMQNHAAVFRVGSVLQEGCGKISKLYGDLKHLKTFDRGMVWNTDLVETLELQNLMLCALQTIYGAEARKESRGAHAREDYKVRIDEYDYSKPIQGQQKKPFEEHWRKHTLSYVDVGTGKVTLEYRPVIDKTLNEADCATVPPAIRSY

Tests used:
[1] = target: T1, SDHAF2 (human (endogenous in HEK293T)) (UniProt Q9NX18); assay: native gel or EMSA; BN-PAGE of isolated mitochondria solubilised in 1% digitonin, immunoblotting; HEK293T control and knockout lines, with or without antimycin A
T1 sequence: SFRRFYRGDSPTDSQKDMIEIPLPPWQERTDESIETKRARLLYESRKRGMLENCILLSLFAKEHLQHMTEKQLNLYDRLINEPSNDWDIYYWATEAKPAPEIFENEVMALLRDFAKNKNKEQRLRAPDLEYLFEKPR

[2] = target: SDHAF4 (human (endogenous in HEK293T)) (UniProt Q5VUM1); assay: native gel or EMSA; complexome profiling: mitochondria of SILAC-labelled control HEK293T and UQCRC1^KO cells solubilised in 1% digitonin, 4 to 16% BN-PAGE, lane cut into 60 slices, quantitative MS; co-migration
[3] = target: T1, SDHAF2 (human (endogenous in HEK293T)); assay: as above

Measured: binding

SDHA (from UniProt P31040 43-664)
binds: all assays above
